For one molecule, binding results are on record in PMC7360063, “Brassinosteroids regulate root meristem development by mediating BIN2-UPB1 module in Arabidopsis” (PLoS Genetics, 2020).

These are yes or no findings as the source states them, for the method shown. Binding seen in cells or lysates may run through a third protein. These calls come from enrichment with a bait or labelling near it, and not all partners need be listed. Sequences can lack the tags named with a protein.

For the assay, the target named is T1, UPB1-HA-Flag (Arabidopsis) (UniProt O22901).
T1 sequence: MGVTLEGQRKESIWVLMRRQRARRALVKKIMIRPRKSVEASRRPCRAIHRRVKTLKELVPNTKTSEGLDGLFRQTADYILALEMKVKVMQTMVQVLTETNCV
Description: affinity purification with mass spectrometry; IP-MS: extract of four-week-old pUPB1-UPB1-HA-Flag/upb1-1 plants on HA agarose beads; SDS-PAGE, in-gel trypsin digest, LC-MS/MS.

B1: GST-PRE3 (natural protein, Arabidopsis, UniProt Q9CA64 1-93, looked up)
chain: MSGRRSRSRQSSGTSRISEDQINDLIIKLQQLLPELRDSRRSDKVSAARVLQDTCNYIRNLHREVDDLSERLSELLANSDTAQAALIRSLLTQ
notes: PRE3, Arabidopsis, At1g74500; source: E. coli, purified
In the case of B1, the binding result is “binds”.
